Results reported in the supplement of paper PMC7666118.
The other results are listed elsewhere or left out.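 How the source made its calls: active = dose-dependent thermal stabilisation significant by F-test of dose-response against flat model at 10% FDR; inactive = not significant.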

Sequences of proteins named here, by UniProt entry; tags and fusion partners are left off. A change or cut given only in a name is not applied to a line headed by its entry.
UniProt Q9HB19: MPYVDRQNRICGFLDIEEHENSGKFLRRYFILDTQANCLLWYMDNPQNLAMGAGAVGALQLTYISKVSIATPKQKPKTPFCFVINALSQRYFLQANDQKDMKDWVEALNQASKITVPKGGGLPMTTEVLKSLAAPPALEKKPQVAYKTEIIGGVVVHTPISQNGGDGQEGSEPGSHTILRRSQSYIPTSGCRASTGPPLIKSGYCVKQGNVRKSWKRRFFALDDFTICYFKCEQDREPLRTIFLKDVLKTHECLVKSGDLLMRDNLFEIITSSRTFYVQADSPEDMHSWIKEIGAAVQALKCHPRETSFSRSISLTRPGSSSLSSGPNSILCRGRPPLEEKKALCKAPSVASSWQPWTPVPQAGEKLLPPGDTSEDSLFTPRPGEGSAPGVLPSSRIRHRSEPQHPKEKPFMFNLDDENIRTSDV
UniProt O60664: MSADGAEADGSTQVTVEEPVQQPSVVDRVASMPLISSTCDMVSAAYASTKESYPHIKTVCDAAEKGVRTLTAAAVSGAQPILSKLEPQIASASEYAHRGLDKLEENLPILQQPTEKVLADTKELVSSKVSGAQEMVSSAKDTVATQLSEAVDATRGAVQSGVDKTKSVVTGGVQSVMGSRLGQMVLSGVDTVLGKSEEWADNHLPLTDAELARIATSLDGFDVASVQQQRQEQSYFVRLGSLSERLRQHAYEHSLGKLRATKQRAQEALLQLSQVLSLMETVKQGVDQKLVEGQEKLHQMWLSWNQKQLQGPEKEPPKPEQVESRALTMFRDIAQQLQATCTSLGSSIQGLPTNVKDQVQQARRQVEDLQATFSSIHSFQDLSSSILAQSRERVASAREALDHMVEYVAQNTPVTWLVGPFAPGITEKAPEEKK
UniProt Q9UF11: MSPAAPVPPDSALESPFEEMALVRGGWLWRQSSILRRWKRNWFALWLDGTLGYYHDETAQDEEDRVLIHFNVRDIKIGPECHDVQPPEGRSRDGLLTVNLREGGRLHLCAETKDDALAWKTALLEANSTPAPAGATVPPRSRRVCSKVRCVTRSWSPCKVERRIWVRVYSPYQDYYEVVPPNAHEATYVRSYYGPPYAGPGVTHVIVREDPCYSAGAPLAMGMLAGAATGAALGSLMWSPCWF
UniProt Q16512: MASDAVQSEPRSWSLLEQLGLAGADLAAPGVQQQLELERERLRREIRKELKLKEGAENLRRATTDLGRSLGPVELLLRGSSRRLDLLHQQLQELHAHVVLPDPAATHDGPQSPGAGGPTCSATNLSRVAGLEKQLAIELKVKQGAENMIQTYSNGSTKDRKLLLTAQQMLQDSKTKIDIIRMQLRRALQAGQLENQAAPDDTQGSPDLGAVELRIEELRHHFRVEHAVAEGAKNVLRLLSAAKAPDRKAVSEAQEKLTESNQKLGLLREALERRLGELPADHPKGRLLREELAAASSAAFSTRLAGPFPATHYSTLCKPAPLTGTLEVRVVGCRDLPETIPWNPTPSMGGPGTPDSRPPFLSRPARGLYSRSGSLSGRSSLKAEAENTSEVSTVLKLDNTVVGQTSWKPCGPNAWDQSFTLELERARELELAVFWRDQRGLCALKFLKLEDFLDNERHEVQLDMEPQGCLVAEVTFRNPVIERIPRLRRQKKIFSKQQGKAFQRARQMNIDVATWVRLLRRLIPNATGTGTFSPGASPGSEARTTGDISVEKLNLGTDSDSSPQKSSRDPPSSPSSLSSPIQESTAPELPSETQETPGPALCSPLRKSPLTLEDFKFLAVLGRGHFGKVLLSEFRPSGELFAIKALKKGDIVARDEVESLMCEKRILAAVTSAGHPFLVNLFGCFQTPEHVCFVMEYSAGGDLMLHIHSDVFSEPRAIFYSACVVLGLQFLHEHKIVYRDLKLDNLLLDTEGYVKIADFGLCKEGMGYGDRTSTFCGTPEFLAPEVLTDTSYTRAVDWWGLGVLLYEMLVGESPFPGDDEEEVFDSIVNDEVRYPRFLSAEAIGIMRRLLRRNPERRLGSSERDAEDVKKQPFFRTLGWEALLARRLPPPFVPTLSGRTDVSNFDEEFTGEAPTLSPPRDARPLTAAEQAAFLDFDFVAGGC
UniProt P60510: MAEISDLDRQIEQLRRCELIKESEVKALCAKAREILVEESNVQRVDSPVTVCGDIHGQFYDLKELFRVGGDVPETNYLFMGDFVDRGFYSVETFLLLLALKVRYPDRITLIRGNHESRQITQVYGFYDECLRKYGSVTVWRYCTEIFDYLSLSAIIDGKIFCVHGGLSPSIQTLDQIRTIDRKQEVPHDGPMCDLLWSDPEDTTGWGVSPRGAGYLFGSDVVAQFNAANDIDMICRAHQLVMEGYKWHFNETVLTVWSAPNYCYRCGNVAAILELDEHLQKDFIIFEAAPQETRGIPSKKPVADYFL
UniProt Q92733: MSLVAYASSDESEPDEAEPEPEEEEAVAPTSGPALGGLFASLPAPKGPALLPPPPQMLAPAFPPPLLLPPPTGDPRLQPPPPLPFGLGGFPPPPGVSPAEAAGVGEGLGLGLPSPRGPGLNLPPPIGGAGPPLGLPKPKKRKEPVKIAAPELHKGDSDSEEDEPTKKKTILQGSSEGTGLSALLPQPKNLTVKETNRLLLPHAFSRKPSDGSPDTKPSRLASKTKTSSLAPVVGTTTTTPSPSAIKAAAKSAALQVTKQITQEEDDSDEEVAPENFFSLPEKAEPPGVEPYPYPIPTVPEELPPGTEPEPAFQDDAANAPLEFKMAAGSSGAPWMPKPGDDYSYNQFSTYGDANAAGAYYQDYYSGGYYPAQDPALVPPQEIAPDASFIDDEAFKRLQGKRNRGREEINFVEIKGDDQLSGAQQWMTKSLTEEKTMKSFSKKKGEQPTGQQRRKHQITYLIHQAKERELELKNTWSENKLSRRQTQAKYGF
UniProt Q96GD0: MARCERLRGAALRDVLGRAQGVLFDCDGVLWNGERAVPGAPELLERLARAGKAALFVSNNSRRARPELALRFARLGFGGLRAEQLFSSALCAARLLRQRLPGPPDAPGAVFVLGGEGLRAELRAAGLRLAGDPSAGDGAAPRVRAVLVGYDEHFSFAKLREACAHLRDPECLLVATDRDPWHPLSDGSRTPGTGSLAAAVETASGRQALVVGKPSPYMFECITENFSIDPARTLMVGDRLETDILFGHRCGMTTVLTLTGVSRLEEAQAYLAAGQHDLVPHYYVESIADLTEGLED
UniProt Q9Y237, whole entry: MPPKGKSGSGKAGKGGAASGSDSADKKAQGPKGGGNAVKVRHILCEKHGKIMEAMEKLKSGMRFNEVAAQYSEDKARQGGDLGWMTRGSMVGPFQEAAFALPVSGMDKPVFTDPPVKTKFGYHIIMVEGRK
UniProt Q99471, whole entry: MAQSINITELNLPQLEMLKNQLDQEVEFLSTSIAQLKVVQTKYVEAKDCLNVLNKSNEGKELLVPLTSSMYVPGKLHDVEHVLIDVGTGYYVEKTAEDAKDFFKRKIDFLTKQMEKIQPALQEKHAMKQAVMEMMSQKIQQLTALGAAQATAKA
UniProt Q53EL6: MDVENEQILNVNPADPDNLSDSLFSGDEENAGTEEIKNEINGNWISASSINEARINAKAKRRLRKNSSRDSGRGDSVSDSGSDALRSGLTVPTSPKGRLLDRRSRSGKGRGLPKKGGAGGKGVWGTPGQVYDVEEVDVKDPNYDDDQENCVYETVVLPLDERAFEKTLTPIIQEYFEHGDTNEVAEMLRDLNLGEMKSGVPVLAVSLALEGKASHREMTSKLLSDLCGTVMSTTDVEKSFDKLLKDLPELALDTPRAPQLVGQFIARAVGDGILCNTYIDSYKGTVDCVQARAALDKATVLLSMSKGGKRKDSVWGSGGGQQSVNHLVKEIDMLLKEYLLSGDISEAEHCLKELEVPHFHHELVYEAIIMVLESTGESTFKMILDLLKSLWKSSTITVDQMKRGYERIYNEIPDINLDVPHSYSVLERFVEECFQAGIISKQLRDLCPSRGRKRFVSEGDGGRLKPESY
UniProt Q9NXJ5: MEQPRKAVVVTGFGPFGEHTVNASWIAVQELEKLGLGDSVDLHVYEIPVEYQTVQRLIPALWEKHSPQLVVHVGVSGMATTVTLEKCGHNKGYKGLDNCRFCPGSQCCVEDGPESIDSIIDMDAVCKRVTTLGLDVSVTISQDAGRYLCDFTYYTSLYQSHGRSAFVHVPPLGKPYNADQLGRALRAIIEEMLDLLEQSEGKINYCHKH
UniProt P40855: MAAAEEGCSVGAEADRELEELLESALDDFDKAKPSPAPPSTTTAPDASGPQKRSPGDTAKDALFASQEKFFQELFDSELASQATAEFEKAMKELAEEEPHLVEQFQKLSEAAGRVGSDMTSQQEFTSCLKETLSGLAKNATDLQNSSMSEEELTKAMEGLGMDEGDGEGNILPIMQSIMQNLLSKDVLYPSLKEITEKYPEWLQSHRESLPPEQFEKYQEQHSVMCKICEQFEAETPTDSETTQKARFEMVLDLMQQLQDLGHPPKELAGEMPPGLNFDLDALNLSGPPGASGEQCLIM
UniProt Q6NSJ2: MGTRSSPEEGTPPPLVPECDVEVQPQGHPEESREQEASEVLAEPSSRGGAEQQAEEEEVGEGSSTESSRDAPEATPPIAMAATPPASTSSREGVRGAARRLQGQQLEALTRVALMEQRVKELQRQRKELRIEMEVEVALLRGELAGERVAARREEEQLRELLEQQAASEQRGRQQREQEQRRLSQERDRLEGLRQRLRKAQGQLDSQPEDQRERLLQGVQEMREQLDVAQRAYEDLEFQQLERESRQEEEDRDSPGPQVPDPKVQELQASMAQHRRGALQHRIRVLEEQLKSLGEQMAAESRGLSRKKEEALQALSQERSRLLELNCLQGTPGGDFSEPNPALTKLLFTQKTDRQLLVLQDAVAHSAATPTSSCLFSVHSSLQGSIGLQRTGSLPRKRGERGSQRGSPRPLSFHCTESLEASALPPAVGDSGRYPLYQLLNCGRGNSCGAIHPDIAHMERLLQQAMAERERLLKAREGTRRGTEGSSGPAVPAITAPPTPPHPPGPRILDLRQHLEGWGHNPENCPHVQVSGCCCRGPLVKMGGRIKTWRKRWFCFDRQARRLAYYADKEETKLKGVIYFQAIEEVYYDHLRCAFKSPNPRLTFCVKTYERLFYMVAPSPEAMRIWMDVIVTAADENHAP
UniProt P14859: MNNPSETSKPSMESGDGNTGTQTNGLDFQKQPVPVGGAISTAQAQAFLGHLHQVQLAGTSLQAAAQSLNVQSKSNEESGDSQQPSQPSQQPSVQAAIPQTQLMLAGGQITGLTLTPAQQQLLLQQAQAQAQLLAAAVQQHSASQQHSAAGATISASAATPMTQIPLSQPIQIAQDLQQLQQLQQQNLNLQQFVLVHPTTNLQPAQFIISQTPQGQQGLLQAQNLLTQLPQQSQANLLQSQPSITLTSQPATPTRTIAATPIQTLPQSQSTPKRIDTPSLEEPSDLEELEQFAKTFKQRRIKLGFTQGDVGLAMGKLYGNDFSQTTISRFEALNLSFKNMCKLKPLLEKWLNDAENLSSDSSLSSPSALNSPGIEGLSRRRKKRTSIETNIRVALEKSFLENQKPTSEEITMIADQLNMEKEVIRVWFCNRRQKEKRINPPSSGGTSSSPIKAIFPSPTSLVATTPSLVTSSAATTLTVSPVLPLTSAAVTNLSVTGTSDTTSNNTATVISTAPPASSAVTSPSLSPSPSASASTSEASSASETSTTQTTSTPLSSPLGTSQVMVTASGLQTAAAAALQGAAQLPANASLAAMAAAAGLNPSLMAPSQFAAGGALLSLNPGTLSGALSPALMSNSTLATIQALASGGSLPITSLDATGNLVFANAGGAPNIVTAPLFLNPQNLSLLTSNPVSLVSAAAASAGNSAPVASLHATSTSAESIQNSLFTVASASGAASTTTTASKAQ
UniProt Q9H4Z3: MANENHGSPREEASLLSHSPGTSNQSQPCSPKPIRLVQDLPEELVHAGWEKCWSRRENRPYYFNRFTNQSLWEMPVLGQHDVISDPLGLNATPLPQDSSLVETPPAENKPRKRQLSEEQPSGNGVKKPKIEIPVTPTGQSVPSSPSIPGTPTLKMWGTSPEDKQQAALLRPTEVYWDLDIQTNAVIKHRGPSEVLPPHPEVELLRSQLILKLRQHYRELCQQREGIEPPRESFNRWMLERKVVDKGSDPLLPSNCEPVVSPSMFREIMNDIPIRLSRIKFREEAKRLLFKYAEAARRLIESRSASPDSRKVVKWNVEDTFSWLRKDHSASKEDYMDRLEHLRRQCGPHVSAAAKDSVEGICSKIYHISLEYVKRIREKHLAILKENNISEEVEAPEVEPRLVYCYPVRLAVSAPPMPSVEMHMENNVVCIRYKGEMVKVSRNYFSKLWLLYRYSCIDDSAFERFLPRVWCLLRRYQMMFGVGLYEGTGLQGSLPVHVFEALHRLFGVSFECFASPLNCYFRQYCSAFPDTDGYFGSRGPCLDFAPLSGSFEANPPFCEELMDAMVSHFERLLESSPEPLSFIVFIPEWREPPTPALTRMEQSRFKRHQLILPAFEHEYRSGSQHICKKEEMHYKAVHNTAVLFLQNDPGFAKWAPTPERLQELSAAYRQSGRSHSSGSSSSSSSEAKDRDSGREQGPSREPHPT

The targets below were run with Nc1nc2c(ncn2[C@@H]2O[C@H](COP(=O)(O)OP(=O)(O)OP(=O)(O)O)[C@@H](O)[C@H]2O)c(=O)[nH]1 (assay: dose-dependent thermal stabilisation call (2D-TPP, DLPTP, 10% FDR) (binary (1 = stabilised)); higher = stabilised by the compound). Conditions: system: Jurkat gel-filtered lysate; concentration range 1-500 µM.
Method: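 2D thermal proteome profiling in gel-filtered Jurkat E6.1 lysate (2 mg/ml) treated with NaGTP (0, 1, 10, 100, 500 uM) for 10 min at room temperature, then heated 3 min at one of 12 temperatures (42-63.9 C). Soluble protein was quantified by TMT10 MS. The value is the DLPTP call of the paper: dose-dependent thermal stabilisation over all temperatures at 10% FDR (F-test of a dose-response against a flat model); one experiment, one call per tested protein.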

Target | dose-dependent thermal stabilisation call
PLEKHA2 (UniProt Q9HB19) | inactive: 0
PLCB2 (UniProt Q00722) | inactive: 0
PDCD2L (UniProt Q9BRP1) | active: 1
PDPK1 (UniProt O15530) | active: 1
PLIN3 (UniProt O60664) | inactive: 0
PELI2 (UniProt Q9HAT8) | inactive: 0
PLEKHB1 (UniProt Q9UF11) | inactive: 0
POLR2C (UniProt P19387) | inactive: 0
PKN1 (UniProt Q16512) | active: 1
PLCG1 (UniProt P19174) | active: 1
PPP4C (UniProt P60510) | inactive: 0
PRCC (UniProt Q92733) | inactive: 0
PPP6R3 (UniProt Q5H9R7) | inactive: 0
PDXP (UniProt Q96GD0) | inactive: 0
PDLIM7 (UniProt Q9NR12) | inactive: 0
PHRF1 (UniProt Q9P1Y6) | inactive: 0
PIN4 (UniProt Q9Y237) | inactive: 0
PFDN5 (UniProt Q99471) | inactive: 0
PRDX6 (UniProt P30041) | inactive: 0
PPME1 (UniProt Q9Y570) | inactive: 0

Some of the entries so far, tab-delimited.
Target	dose-dependent thermal stabilisation call
PRCC (UniProt Q92733)	inactive: 0
PIN4 (UniProt Q9Y237)	inactive: 0
PRDX6 (UniProt P30041)	inactive: 0

(further entries)

Target | dose-dependent thermal stabilisation call
PDCD4 (UniProt Q53EL6) | inactive: 0
PPP3R1 (UniProt P63098) | inactive: 0
PDSS1 (UniProt Q5T2R2) | inactive: 0
POLR3E (UniProt Q9NVU0) | inactive: 0
PIK3CB (UniProt P42338) | active: 1
PGPEP1 (UniProt Q9NXJ5) | inactive: 0
PEX19 (UniProt P40855) | inactive: 0
POLR3F (UniProt Q9H1D9) | inactive: 0
PPM1H (UniProt Q9ULR3) | inactive: 0
PFDN1 (UniProt O60925) | inactive: 0
PHLDB3 (UniProt Q6NSJ2) | inactive: 0
PPIL3 (UniProt Q9H2H8) | active: 1
POLR2I (UniProt P36954) | inactive: 0
POU2F1 (UniProt P14859) | inactive: 0
POLR2H (UniProt P52434) | inactive: 0
PGP (UniProt A6NDG6) | inactive: 0
PCIF1 (UniProt Q9H4Z3) | active: 1
POC5 (UniProt Q8NA72) | inactive: 0
PNMA2 (UniProt Q9UL42) | inactive: 0
PCNA (UniProt P12004) | active: 1
